Consider 5 targets from the supplement of paper PMC6411743.

The chains behind the UniProt entries cited, without tags or fusion partners. Where a name states a change or a piece, a line headed by the entry shows the natural chain unless it says otherwise.
UniProt Q12933: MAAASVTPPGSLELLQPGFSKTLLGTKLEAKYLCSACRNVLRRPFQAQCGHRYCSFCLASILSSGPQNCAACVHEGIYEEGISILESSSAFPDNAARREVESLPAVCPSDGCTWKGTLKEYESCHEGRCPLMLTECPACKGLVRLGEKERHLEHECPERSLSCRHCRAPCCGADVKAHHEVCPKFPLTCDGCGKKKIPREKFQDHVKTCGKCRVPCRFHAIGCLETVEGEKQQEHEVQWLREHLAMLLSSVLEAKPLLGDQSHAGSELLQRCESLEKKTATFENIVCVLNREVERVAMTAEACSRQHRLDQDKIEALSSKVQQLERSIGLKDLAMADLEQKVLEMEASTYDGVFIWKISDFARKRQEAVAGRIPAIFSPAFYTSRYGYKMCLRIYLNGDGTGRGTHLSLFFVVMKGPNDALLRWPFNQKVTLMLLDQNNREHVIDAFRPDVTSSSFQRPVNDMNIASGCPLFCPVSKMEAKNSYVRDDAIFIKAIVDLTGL
UniProt Q02446, whole entry: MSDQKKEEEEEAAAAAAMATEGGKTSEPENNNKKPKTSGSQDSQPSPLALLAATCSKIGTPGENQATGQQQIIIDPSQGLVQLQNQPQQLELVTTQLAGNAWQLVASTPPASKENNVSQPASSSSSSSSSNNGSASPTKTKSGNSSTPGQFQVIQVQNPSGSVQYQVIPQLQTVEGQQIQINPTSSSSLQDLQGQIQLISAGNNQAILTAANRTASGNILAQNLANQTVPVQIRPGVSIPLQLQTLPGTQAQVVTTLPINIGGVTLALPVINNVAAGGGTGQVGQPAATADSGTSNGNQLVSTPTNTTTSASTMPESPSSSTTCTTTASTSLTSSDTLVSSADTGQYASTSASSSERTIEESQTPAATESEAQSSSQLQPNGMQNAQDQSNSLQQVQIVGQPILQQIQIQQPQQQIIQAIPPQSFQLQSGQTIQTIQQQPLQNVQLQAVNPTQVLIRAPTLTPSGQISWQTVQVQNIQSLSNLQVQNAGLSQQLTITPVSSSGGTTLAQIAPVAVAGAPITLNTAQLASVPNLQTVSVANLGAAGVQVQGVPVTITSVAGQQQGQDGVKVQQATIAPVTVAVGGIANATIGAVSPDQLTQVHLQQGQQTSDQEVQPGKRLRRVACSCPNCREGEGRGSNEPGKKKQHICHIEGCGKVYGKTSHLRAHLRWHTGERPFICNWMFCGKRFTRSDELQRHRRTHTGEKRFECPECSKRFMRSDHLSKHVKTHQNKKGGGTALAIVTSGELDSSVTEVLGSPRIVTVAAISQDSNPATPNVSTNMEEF
UniProt Q14457, whole entry: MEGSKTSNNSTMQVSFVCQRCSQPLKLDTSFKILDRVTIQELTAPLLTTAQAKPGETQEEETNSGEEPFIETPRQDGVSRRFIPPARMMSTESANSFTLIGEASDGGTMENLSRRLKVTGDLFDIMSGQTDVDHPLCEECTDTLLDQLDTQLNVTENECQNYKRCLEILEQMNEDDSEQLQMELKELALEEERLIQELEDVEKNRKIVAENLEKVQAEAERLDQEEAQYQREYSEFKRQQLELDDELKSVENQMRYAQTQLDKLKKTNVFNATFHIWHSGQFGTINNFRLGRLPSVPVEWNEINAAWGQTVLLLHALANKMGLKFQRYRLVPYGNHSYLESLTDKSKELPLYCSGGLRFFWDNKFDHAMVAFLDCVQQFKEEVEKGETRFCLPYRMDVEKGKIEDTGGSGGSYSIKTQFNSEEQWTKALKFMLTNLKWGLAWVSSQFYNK

Compound in the experiment: Nc1nc2c(ncn2[C@@H]2O[C@H](COP(=O)(O)OP(=O)(O)OP(=O)(O)O)[C@@H](O)[C@H]2O)c(=O)[nH]1 [guanosine triphosphate]
The experiment in a line: NP40-soluble protein abundance relative to vehicle (solubility fold change) (ratio); higher = more soluble protein in presence of GTP. On the procedure: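 Solubility proteome profiling in Jurkat crude lysate. Lysate was treated with Mg-GTP (0.1-10 mM) for 10 min at room temperature and 3 min at 37 °C, then solubilised with 0.8% NP40 and benzonase, followed by ultracentrifugation. Proteins were quantified by TMT10 LC-MS/MS; the value is the NP40-soluble abundance relative to the NP40-processed vehicle, from 3 independent experiments.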

± gives the standard deviation of the averaged measurements. The list shows a part of the results.

For the target UniProt Q12933 and related entries, the NP40-soluble protein abundance came out at 0.987 ± 0.025 (concentration: 0.1mM); 1.03 ± 0.079 (concentration: 0.5mM); 0.994 ± 0.045 (concentration: 1mM); 0.982 ± 0.064 (concentration: 2mM); 0.989 ± 0.066 (concentration: 4mM); 1.02 ± 0.055 (concentration: 6mM). Further, the NP40-soluble protein abundance runs as follows: (concentration: 8mM) 0.983 ± 0.06; (concentration: 10mM) 0.996 ± 0.068.

For the target GNL2 (UniProt Q13823), the NP40-soluble protein abundance (concentration: 0.1mM) is 1.06 ± 0.011; the NP40-soluble protein abundance (concentration: 0.5mM) was 1.07 ± 0.043; the NP40-soluble protein abundance (concentration: 1mM) is 1.07 ± 0.011; the NP40-soluble protein abundance (concentration: 2mM) amounted to 1.12 ± 0.047; the NP40-soluble protein abundance (concentration: 4mM) came out at 1.16 ± 0.027; the NP40-soluble protein abundance (concentration: 6mM) was determined as 1.19 ± 0.08. The NP40-soluble protein abundance by setting is: (concentration: 8mM) 1.23 ± 0.1; (concentration: 10mM) 1.28 ± 0.17.

Take SP4 (UniProt Q02446): the NP40-soluble protein abundance is, setting by setting: (concentration: 0.1mM) 0.964 ± 0.054; (concentration: 0.5mM) 0.987 ± 0.09; (concentration: 1mM) 0.961 ± 0.061; (concentration: 2mM) 0.99 ± 0.042; (concentration: 4mM) 0.944 ± 0.026; (concentration: 6mM) 1.03 ± 0.046. The NP40-soluble protein abundance (concentration: 8mM) is 1.02 ± 0.13 and the NP40-soluble protein abundance (concentration: 10mM) was found to be 1.03 ± 0.044.

For the target BECN1 (UniProt Q14457), the NP40-soluble protein abundance is 1.018 ± 0.0085 (concentration: 0.1mM); 1.04 ± 0.044 (concentration: 0.5mM); 1.06 ± 0.045 (concentration: 1mM); 1.02 ± 0.037 (concentration: 2mM); 1.06 ± 0.059 (concentration: 4mM); 1.03 ± 0.066 (concentration: 6mM). Moreover, the NP40-soluble protein abundance runs as follows: (concentration: 8mM) 1.07 ± 0.1; (concentration: 10mM) 1.02 ± 0.078.

Turning to AHNAK (UniProt Q09666), the NP40-soluble protein abundance runs as follows: (concentration: 0.1mM) 0.977 ± 0.031; (concentration: 0.5mM) 0.967 ± 0.047; (concentration: 1mM) 1.01 ± 0.048; (concentration: 2mM) 0.972 ± 0.078; (concentration: 4mM) 0.973 ± 0.072; (concentration: 6mM) 0.977 ± 0.06. In addition, the NP40-soluble protein abundance came to 1.01 ± 0.03 (concentration: 8mM) and 0.998 ± 0.044 (concentration: 10mM).
